Library screening results

Source: ChEMBL document CHEMBL3988442, “University of Dundee, Small-Polar-MMV Screening Library” (2021).

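Viability assay of Plasmodium falciparum sporozoites; the read-out is not stated. The concentration is filed as 10 mM, unlikely as a test dose, so the dose is not known. Direction is inferred from retests: higher values go with lower viability. Strong results were mostly tested again. Of about 34,000 compounds tested this way, about 280 (0.84%) reached 50% or more in at least one test.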

Values are the deposited “Percent Effect”, in %. The controls that fix the scale are not given in the record; negative values are as filed. The compounds are a random part of those screened. Two or more numbers in one place are separate tests of the same structure; such repeats can differ widely.

CCc1c(C(=O)N2CCN(c3cnccn3)CC2)cnn1C(C)(C)C read 5.148%. Result for Cc1cscc1C(=O)NC1CC(=O)N(C(C)C)C1=O (stereo unspecified) was 5.005%. For COc1ccc(OCc2nc(C(=O)N3CC(O)C3)co2)cc1 the result was 0.3529%. Cn1ccc(C(=O)NC2CCC23CCN(C(=O)c2ccncc2)CC3)c1.O=C(O)C(F)(F)F (stereo unspecified) read 1.964%. COc1ccc(CN2CCC3(CC(C(=O)NCC(C)C)=NO3)C2)cc1 (stereo unspecified) read 4.853%.

With Cc1cc(C)nc(N2CCC(Cn3cc(C(=O)N(C)C)cn3)CC2)n1 the screen gave 0.6588%. For CCCc1n[nH]c(C2CN(CCNS(=O)(=O)CC)CCO2)n1 (stereo unspecified) the result was -15.75%. For CS(=O)(=O)c1ccc(CNC(=O)N2CCC(C(N)=O)C2)cc1 (stereo unspecified) the result was -5.345%. c1cncc(CN2CC(Cc3nccc4cc[nH]c34)C2)c1 read 4.521%. CCc1c(C(=O)NCC2CCS(=O)(=O)C2)cnn1-c1ccc(C)cc1 (stereo unspecified) gave 23.11%.

Cc1ncccc1OC1(C(=O)NCCNc2ccccc2)CCNCC1 gave -4.353%. Cc1ccc(OC2(C(=O)O)CCN(C(=O)c3cc(C)oc3C)CC2)cn1 gave -10.03%. With CCN(CC1CCOC1)C(=O)c1cccnc1N1CCOCC1 (stereo unspecified) the screen gave -5.297%. With Cc1nnc(SCC(=O)c2cc3c(cc2Cl)NC(=O)C3)s1 the screen gave 0.9991%. Cl.Cn1nc(C2CCN(C(=O)CN3CCCCC3)CC2)c2cccnc21 read 1.897%.

CC(=O)N1CCCN(C(=O)c2ccc(=O)n(C)c2)c2ccccc21 read -2.017%. With C=C(C)CNC(=O)C1CCC(=O)N(C2CCCC2)C1 (stereo unspecified) the screen gave -6.982%. CC(C)S(=O)(=O)Cc1cccc(NC(=O)c2ccc[nH]2)c1 gave -9.212%. COC1CN(CCO)S(=O)(=O)c2ccccc21 (stereo unspecified) gave -31.06%. With CN(CCO)Cc1nnc(C2CCN(C(=O)C(C)(C)C)CC2)n1C the screen gave -4.721%.

For C[C@]1(O)CCN(Cc2ncccc2F)C[C@@H]1Oc1cccc(F)c1 the result was 12.12%. For COc1ccc(N2CCN(C(=O)COc3c(C)occc3=O)CC2)cc1 the result was -0.6358%. CN(Cc1ccsc1)C(=O)CN1CCCC(Cn2cncn2)C1 (stereo unspecified) gave -2.421%. Cc1ccc2ncnc(N3CCOCC3c3c(C)nn(C)c3C)c2c1 (stereo unspecified) gave -13.73%. Result for CC(CNC(=O)CCc1ccco1)N1CCc2sccc2C1 (stereo unspecified) was -22.01% & -21.88%.

Result for CCO[C@@H]1CO[C@@]2(CCCN(C(=O)c3ccc(OC)c(F)c3)C2)C1 was 6.145%. For COCCN(Cc1ccoc1)C(=O)c1c(F)cccc1Cl the result was 2.123%. Result for Cc1nnc2n1CCN(C(C(=O)N1CCCCC1)c1ccccc1)C2 (stereo unspecified) was 3.419%. For O=C(O)C(F)(F)F.[H][C@@]12CN(Cc3cccs3)C[C@]1([H])C(=O)N(CC)C2 the result was 9.923%. O=C(C1CCCC1)N1CCN(Cc2nc(-c3ccco3)no2)CC1 gave -6.433%.

Cc1nc(CN2CCCC(NCCOCC(F)(F)F)C2)no1 (stereo unspecified) read 0.7401%. COC(=O)c1sccc1S(=O)(=O)NCC1(O)CCOc2ccccc21 (stereo unspecified) read 10.74%. With Cc1nn(C)c(C)c1NC(=O)CN1CCc2c(nc(C3CC3)n2C)C1 the screen gave -4.942% & -5.332% & 2.706%. With Cn1cc(C(=O)NC2CCN(C(=O)NCC3CCSCC3)CC2)cn1 the screen gave -20.05%. CCC1(C)Cc2ccccc2-c2nc(NCCCO)nc(O)c21 (stereo unspecified) gave 2.089%.

With COc1ccc(C2=CCN(C(=O)CN(CC(N)=O)C(C)C)CC2)cc1 the screen gave 4.962%. With CCOCCCn1c(NC(=O)c2cnc(C)cn2)nc2ccccc21 the screen gave -2.08%. c1cc(-c2noc([C@@H]3Cc4nc[nH]c4CN3)n2)ccn1 gave -0.1591% & 11.18%. For Cc1cccc(C)c1OC1CN(C(=O)C2CC(=O)N(C(C)(C)C)C2)C1 (stereo unspecified) the result was -8.292%. For Cc1noc(C)c1CCC(=O)N1CCCN(Cc2cccs2)CC1 the result was 1.556%.

Result for CC(=O)N1CC(C(=O)NC(C)c2cnn(C)c2C)C1 (stereo unspecified) was 13.22%. With CC(C)NC(=O)CC1COC2(CCN(Cc3ccccc3)CC2)C1.O=C(O)C(F)(F)F (stereo unspecified) the screen gave -4.194%. With Cc1nn(C)cc1CN(Cc1ccccn1)Cc1ccccc1Cl the screen gave -6.138%. For Cc1nc(C)n(CC(=O)N2CCCC(c3cc4ccccc4cn3)C2)n1 (stereo unspecified) the result was -2.15%. With Cc1n[nH]cc1CNC(C)c1cccc(N2CCCC2=O)c1.Cl (stereo unspecified) the screen gave 8.452%.

Result for CCc1ccc(CN2CCC3(CC2)C(=O)N(C)CCN3CC)cc1 was 4.962%. Result for Cl.Cn1ccnc1C1(O)CCN(C(=O)CCc2ccccc2)CC1 was -7.828%. CC(C)N1CCN(C(=O)Nc2cnc3c(cnn3C(C)C)c2)CC1 gave 20.13%. Cc1[nH]/c(=N\C(=O)c2csc(NCC(C)C)n2)sc1C gave 72.35% & 45.27% & 35.24%. With O=C(Cc1ccc2c(c1)CCO2)N1CCN(c2ccncc2)CC1 the screen gave 11.49%.

Result for O=C(O)C(F)(F)F.O=C(O)C(F)(F)F.[H][C@]12C[C@H](CN(C)C)O[C@@]1([H])CN(Cc1ccco1)C2 was 17.78%. Result for CCN1CCC(NC(=O)CN2CCCC2Cn2cc(C)cn2)CC1 (stereo unspecified) was -17.98% & 0.1346% & -30.66%.

Some entries from above, unchanged:

| SMILES | percent effect |
|---|---|
| `Cc1nnc2n1CCN(C(C(=O)N1CCCCC1)c1ccccc1)C2` (stereo unspecified) | 3.419 |
| `Cc1nc(CN2CCCC(NCCOCC(F)(F)F)C2)no1` (stereo unspecified) | 0.7401 |
| `Cn1ccc(C(=O)NC2CCC23CCN(C(=O)c2ccncc2)CC3)c1.O=C(O)C(F)(F)F` (stereo unspecified) | 1.964 |
| `O=C(Cc1ccc2c(c1)CCO2)N1CCN(c2ccncc2)CC1` | 11.49 |